Measured values: PubChem BioAssay AID1487 (National Center for Advancing Translational Sciences (NCATS), 2009)
“And” between values parts separate entries of the source, which are not always exact repeats. Equal entries are not always repeated. This is one part of the list. Shown are side measurements of this screen, not its main read-out; they come without a call. Most of these compounds were active or inconclusive in the main read-out, so they are no random draw. Words in brackets tell the shape of the fitted curve; partial curves, single points and poor fits give uncertain potencies.

Assay: qHTS Assay for Modulators of Lamin A Splicing
Conditions: HeLa LMNA splicing GFP/RFP minigene ratio, 48 h
How it was run: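 Read-out is the ratio of GFP to DsRed2 object intensity, acquired by 488 nm laser-scanning cytometry on HeLa lamin A-EGFP minigene reporter cells. Compound incubation 48 hrs at 37 °C in Opti-MEM with 2% FBS; DMSO 0.5% final.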

[1] = measured here: RFP viability control channel
[2] = measured here: GFP splicing reporter channel

Question: With CS(=O)(=O)c1ccc2nc(NC(=O)c3cccc(NS(=O)(=O)c4ccc(F)c(F)c4)c3)sc2c1 as the compound, how does the AC50 [1] read?
Answer: 11.2 µM [rising, single point]

Question: Which AC50 [1] does the source give for CSCCC(NS(=O)(=O)c1c(Cl)cccc1Cl)C(=O)O (stereo not given) here?
Answer: 0.0141 µM [rising, full curve, poor fit]

Question: For CCN(c1ccccc1)S(=O)(=O)c1cc(C(=O)Nc2ccccc2Cl)ccc1F, which AC50 [1] is on record?
Answer: 31.6 µM [rising, single point]

Question: Which AC50 [1] does the source give for Cc1cc(S(=O)(=O)NCCc2csc(-c3cccc(F)c3)n2)ccc1F here?
Answer: 12.6 µM [rising, single point]

Question: With c1cncc(CSc2ccc(-c3cccs3)nn2)c1 as the compound, how does the AC50 [2] read?
Answer: 4.47 µM [rising, partial curve, poor fit]

Question: What about the AC50 [1] of the same compound?
Answer: 2.82 µM [rising, partial curve, poor fit]

Question: For O=C(Nc1ccc(C2=NCCN2)cc1)c1ccc(C(=O)Nc2ccc(C3=NCCN3)cc2)c(Cl)c1, which AC50 [2] is on record?
Answer: 7.94 µM [rising, partial curve, poor fit]

Question: With O=C(c1cccs1)N1CCN(S(=O)(=O)c2ccc(F)cc2)CC1 as the compound, how does the AC50 [2] read?
Answer: 0.01 µM [rising, full curve]

Question: And the AC50 [1]?
Answer: 0.0112 µM [rising, full curve, poor fit]

Question: What does the source list for CCc1cccc(CC)c1NC(=O)/C(C#N)=C/c1ccccc1C(F)(F)F?
Answer: AC50 [2]: 25.1 µM [falling, single point]; AC50 [1]: 22.4 µM [falling, single point]

Question: With O=C(O)c1ccc(Sc2nnc(-c3cccc(Br)c3)o2)c([N+](=O)[O-])c1 as the compound, how does the AC50 [1] read?
Answer: 35.5 µM [rising, single point]

Question: For Cc1ccc(C)c(NS(=O)(=O)c2cc(C(=O)NCCC3=CCCCC3)ccc2C)c1, which AC50 [1] is on record?
Answer: 10 µM [rising, partial curve]

Question: Which results are given for CC(C)Oc1ccccc1/C=N/Nc1ccccc1[N+](=O)[O-]?
Answer: AC50 [2]: 14.1 µM [rising, single point]; AC50 [1]: 20 µM [rising, partial curve]

Question: With O=C(N/N=C/c1cccc(OCc2ccccc2)c1)c1cccs1 as the compound, how does the AC50 [2] read?
Answer: 35.5 µM [falling, single point]

Question: What about the AC50 [1] of the same compound?
Answer: 35.5 µM [falling, single point]

Question: With COc1ccc(-c2nnc(CSc3nc4ccccc4c(=O)n3CC(C)C)o2)cc1OC as the compound, how does the AC50 [1] read?
Answer: 3.55 µM [rising, single point]

Question: With CN(C)c1ccc(-c2nc(N(C)Cc3ccco3)c3ccccc3n2)cc1 as the compound, how does the AC50 [2] read?
Answer: 11.2 µM [rising, single point]

Question: With CN1CCN(c2ccc([N+](=O)[O-])cc2C(=O)c2ccccc2)CC1 as the compound, how does the AC50 [1] read?
Answer: 15.8 µM [rising, single point]

Question: What does the source list for O=C(O)C(O)c1ccccc1 (stereo not given)?
Answer: AC50 [2]: 28.2 µM [rising, partial curve]; AC50 [1]: 35.5 µM [rising, partial curve, poor fit] and 7.94 µM [falling, partial curve, poor fit]

Question: Which AC50 [1] does the source give for Cn1c(SCC(=O)NNC(=O)Cc2ccccc2)nc2ccccc2c1=O here?
Answer: 1 µM [rising, full curve]

Question: Which AC50 [1] does the source give for Cc1ccc(NC(=O)C(=O)NCC(c2ccc3c(c2)OCO3)N2CCN(C)CC2)cc1C (stereo not given) here?
Answer: 0.891 µM [falling, full curve, poor fit]

Question: With O=C(/C=C\c1ccco1)Nc1ccc(N2CCN(C(=O)c3ccccc3)CC2)cc1 as the compound, how does the AC50 [2] read?
Answer: 0.251 µM [rising, partial curve, poor fit]

Question: What about the AC50 [1] of the same compound?
Answer: 35.5 µM [rising, single point]

Question: Which AC50 [1] does the source give for O=C(Nc1ccccc1N1CCOCC1)C1CCN(S(=O)(=O)c2cccc(C(F)(F)F)c2)CC1 here?
Answer: 20 µM [rising, single point]

Question: For C/C(=N\NC(=O)C(C)n1nc(C)c([N+](=O)[O-])c1C)c1ccccc1O (stereo not given), which AC50 [2] is on record?
Answer: 6.31 µM [rising, partial curve]

Question: What about the AC50 [1] of the same compound?
Answer: 14.1 µM [rising, partial curve]

Question: For O=S(=O)(c1ccc(F)cc1)N1CCN(c2ccccn2)CC1, which AC50 [1] is on record?
Answer: 15.8 µM [rising, partial curve, poor fit]

Question: For Cc1ccc(CCNC(=O)C2CCCN(c3nc4ccccc4o3)C2)cc1 (stereo not given), which AC50 [1] is on record?
Answer: 10 µM [rising, partial curve]

Question: With CN(C(=S)Nc1ccc(Oc2ccccc2)cc1)c1ccc(O)cc1 as the compound, how does the AC50 [2] read?
Answer: 7.94 µM [falling, partial curve, poor fit]

Question: What about the AC50 [1] of the same compound?
Answer: 3.16 µM [falling, full curve, poor fit]

Question: For Nc1nc(-c2cccc(NS(=O)(=O)c3ccccc3)c2)cs1, which AC50 [1] is on record?
Answer: 11.2 µM [rising, partial curve, poor fit]

Question: Which AC50 [1] does the source give for CC1Cc2ccccc2N1C(=O)CSC1=NCCS1 (stereo not given) here?
Answer: 6.31 µM [rising, full curve, poor fit]

Question: Which AC50 [1] does the source give for CCN(CCCNC(=O)COc1cc(=O)n(CC)c2ccccc12)c1ccccc1 here?
Answer: 31.6 µM [rising, single point]

Question: Which AC50 [2] does the source give for CC(C)CNC(=O)COc1ncnc2sccc12 here?
Answer: 0.02 µM [falling, full curve, poor fit]

Question: What about the AC50 [1] of the same compound?
Answer: 3.98 µM [falling, single point]

Question: For O=C1N=C2N(CCN3CCCCC3)c3ccccc3N2/C1=C\c1ccc([N+](=O)[O-])o1, which AC50 [2] is on record?
Answer: 2.24 µM [falling, full curve]

Question: What about the AC50 [1] of the same compound?
Answer: 5.01 µM [falling, partial curve]

Question: For O=S(=O)(c1ccccc1Cl)N1CCCC1c1nc(-c2ccc(Cl)cc2)no1 (stereo not given), which AC50 [1] is on record?
Answer: 10 µM [rising, partial curve, poor fit]

Question: With CC(C)C[C@H](NC(=O)OC(C)(C)C)c1nnc(SCC(=O)Nc2ccc(Br)cc2)o1 as the compound, how does the AC50 [2] read?
Answer: 14.1 µM [rising, single point]

Question: And the AC50 [1]?
Answer: 8.91 µM [rising, partial curve]

Question: For COc1cccc(N/C=C/C(=O)c2ccc(Cl)cc2)c1, which AC50 [2] is on record?
Answer: 14.1 µM [rising, partial curve]

Question: What does the source list for CSc1ccc(CN(C)CC(=O)Nc2ccccc2Br)cc1?
Answer: AC50 [2]: 31.6 µM [rising, single point]; AC50 [1]: 35.5 µM [rising, single point]

Question: For Cc1cccc2cc(CN(Cc3cccnc3)C(=S)NCCCN(C)C)c(=O)[nH]c12, which AC50 [1] is on record?
Answer: 5.62 µM [falling, single point]

Question: Which AC50 [1] does the source give for Cn1c(SCC(=O)Nc2ccccc2)nc2c([nH]c3ccccc32)c1=O here?
Answer: 12.6 µM [falling, partial curve]

Question: For O=S(=O)(N/N=C/c1ccc(Cl)cc1)c1ccc(Cc2ncc(C(F)(F)F)cc2Cl)s1, which AC50 [1] is on record?
Answer: 17.8 µM [rising, single point]

Question: Which AC50 [1] does the source give for CCc1c(C)sc(NC(=O)Cn2nc(C(F)(F)F)c3c2CCCC3)c1C#N here?
Answer: 11.2 µM [rising, partial curve]

Question: For COc1cccc(NC(=O)c2ccccc2-c2nc(-c3ccc(Cl)cc3)no2)c1, which AC50 [2] is on record?
Answer: 15.8 µM [rising, single point]

Question: And the AC50 [1]?
Answer: 31.6 µM [rising, single point]

Question: With CCCn1c(-c2ccc(OC)cc2)nc2ccccc21 as the compound, how does the AC50 [2] read?
Answer: 17.8 µM [rising, single point]

Question: What about the AC50 [1] of the same compound?
Answer: 22.4 µM [rising, partial curve]

Question: With O=C(N/N=C\C=C\c1ccco1)c1cc(-c2ccc3ccccc3c2)n[nH]1 as the compound, how does the AC50 [2] read?
Answer: 5.01 µM [falling, partial curve, poor fit]

Question: What about the AC50 [1] of the same compound?
Answer: 3.55 µM [falling, partial curve, poor fit]

Question: Which AC50 [1] does the source give for Cc1cc(Cl)c(S(=O)(=O)N2CCCCCC2)cc1OCC(N)=O here?
Answer: 15.8 µM [rising, single point]

Question: With CCOC(=O)c1cccc(Nc2ncnc3ccccc23)c1 as the compound, how does the AC50 [1] read?
Answer: 12.6 µM [rising, partial curve]

Question: With COc1ccc(CC(NC(C)=O)C(=O)NC2CCN(c3c(Cc4ccccc4)c(C)nc4ncnn34)CC2)cc1OC (stereo not given) as the compound, how does the AC50 [1] read?
Answer: 0.00891 µM [falling, full curve]

Question: What does the source list for O=C(/C=C/c1ccc(O)c(O)c1)OCCc1ccccc1?
Answer: AC50 [2]: 2.82 µM [rising, partial curve] and 2.82 µM [falling, full curve]; AC50 [1]: 2.82 µM [falling, full curve]

Question: Which AC50 [2] does the source give for COc1cccc(NC(=O)Cn2nc(-c3ccncc3)ccc2=O)c1 here?
Answer: 0.0224 µM [falling, full curve, poor fit]

Question: Which results are given for C=CCn1c(SCC(=O)OCC)nc(C(F)(F)F)cc1=O?
Answer: AC50 [2]: 1.78 µM [rising, partial curve]; AC50 [1]: 1.58 µM [rising, partial curve]

Question: What does the source list for O=C(CCc1ccc(Oc2cc([N+](=O)[O-])cc([N+](=O)[O-])c2)cc1)NC1CCCC1?
Answer: AC50 [2]: 17.8 µM [rising, single point]; AC50 [1]: 35.5 µM [rising, single point]

Question: Which AC50 [2] does the source give for COc1ccc(Cn2c(CNS(=O)(=O)c3ccc(Cl)s3)nc3cccnc32)cc1 here?
Answer: 0.447 µM [rising, partial curve]

Question: With CCCOc1cc(C)c(S(=O)(=O)NCCOC)cc1C as the compound, how does the AC50 [1] read?
Answer: 22.4 µM [rising, single point]

Question: For O=C(/C=C/c1ccc(Cl)cc1Cl)n1cccn1, which AC50 [2] is on record?
Answer: 35.5 µM [falling, single point]

Question: And the AC50 [1]?
Answer: 20 µM [falling, partial curve]

Question: With CC(C)=CC(=O)N1CCC(N2CCC(C(=O)N3CCOCC3)CC2)CC1 as the compound, how does the AC50 [1] read?
Answer: 35.5 µM [falling, single point]

Question: For COc1ccc(NS(=O)(=O)c2ccc(O)c(NC(=O)c3ccc(S(=O)(=O)N4CCCCCC4)cc3)c2)cc1, which AC50 [1] is on record?
Answer: 2.82 µM [rising, full curve]

Question: Which AC50 [2] does the source give for CCCCN(CCCC)C(=S)N/N=C/c1c(C)[nH]n(-c2ccccc2)c1=O here?
Answer: 35.5 µM [falling, single point]

Question: What about the AC50 [1] of the same compound?
Answer: 1.12 µM [falling, full curve, poor fit]

Question: For Cc1cccc(OCCCCc2c(C)n[nH]c2C)c1C, which AC50 [1] is on record?
Answer: 35.5 µM [rising, single point]
